Slope data for ten compounds are collected here from patent US7622498B2, “Sugar derivatives comprising oxiranes or α, β-unsaturated δ-lactones, process for their preparation and their utilisation as pesticides” (Instituto Politecnico de Santarem/Escoal Superior Agraria, priority 2004, dated 2009).

Series [1] concerns brine shrimp A. salina larvae. The experiment in a line: Method F: immersion bioassay of brine shrimp larvae in brine. Type of series: in vivo. Conditions: slope of log-probit regression line. The protocol: Immersion Bioassay of Brine Shrimp A. salina Larvae in Brine
Freshly hatched brine shrimps were prepared by adding aquarium brine shrimp eggs to salt water (15 g sea salt per litre water). The following day hatchlings were separated from eggs and empty egg cases, using their phototropic movement and a Pasteur pipette.
Into each of a set of small glass vials was pipetted 195 μL of brine containing 5 shrimp larvae, using a micropipette. The solution of the test compound in 5 μL acetone was added, the vial closed and kept at 30±1° C. for observation.
Dead and alive shrimps were counted, at 1 and 24 hours after treatment, using a microscope. Six concentrations and a control were used with 10 shrimps treated.
A blank test was performed for comparison of the results.
(§1) Dosages used in insect treatments were based upon the amount of compound applied to each insect. For the shrimps the final concentrations of the compounds in the immersion brine were used.
(§2) The 24 hour mortalities were used to calculate the LD50/LC50 using regression analysis of the probability percent mortality (probit) against log dose/concentration.^30 This was calculated using PoloPC software (LeOra Software, Berkeley, Calif., 1994).

The subject of series [2] is adult fruit fly (D. melanogaster). The experiment in a line: Method A: topical treatment of adult fruit fly. It counts as in vivo, Drosophila melanogaster. Conditions: slope of log-probit regression line, adult fruit flies. How it is done: Topical Treatment of Adult Fruit Fly (D. melanogaster)
A culture of fruit flies (D. melanogaster) was used in the production of adult flies (approx 0.22 mg) of about seven days.
Serial dilutions of the compounds were prepared in acetone, and volumes of approximately 0.2 μL were applied to the ventral surface of each insect, using a calibrated PAX 100 microapplicator and a 1 mL syringe.
The fruit flies, in groups of 5, were anaesthetised using carbon dioxide. Prior to recovery the flies were placed in a containing vial and kept at 30±1° C., for observations of mortality at 1, 2, 3 and 24 hours after treatment.
For this purpose solutions of 6 different concentrations and a control were employed in groups of 12 and 20 insects. Control mortalities were normally zero but occasionally rose to 5-10%.
as §1, §2
In the table are also given the confidence intervals at 95% for the LD50 values, the number of organisms tested, the slope obtained by linear regression and the index g (of significance). Data are considered satisfactory if g is substantially less than 1 and seldom greater than 0.4.^31
As regards the confidence intervals for LD50, the indication (90%) means that the intervals were calculated at 90% and not at 95%.

Series [3] deals with fruit fly larvae. The experiment in a line: Method D: topical treatment of fruit fly larvae. It counts as in vivo, Drosophila melanogaster. Conditions: slope of log-probit regression line. How it is done: Topical Treatment of Fruit Fly Larvae
Fruit fly larvae were separated from the growing medium and second and third instars were topically treated with 0.2 μL acetone solutions of the compounds using a PAX microapplicator.
Larvae were held in padded forceps for dosing and then placed on moistened filter paper, at 30±1° C., for observation.
as §1, §2

Series [4] has as its system house fly adults (M. domestica). Put plainly: Method E: topical treatment of house fly adults. It counts as in vivo, Musca domestica. The following applies: slope of log-probit regression line, adult house flies. How it is done:
Topical Treatment of House Fly Adults (M. domestica)
A culture of an insecticide-susceptible strain, Cooper, was established. Three-day-old adult house flies (body weight about […]) were anaesthetised with carbon dioxide. Using the PAX microapplicator, a volume of 1 μL of acetone solution of the test compounds was applied to the dorsal cuticle, holding the fly in padded forceps.
Groups of flies were placed into closed vials, kept at 30±1° C., for observation.
as §1, §2

Take `CC1=C[C@H]([C@H]2O[C@@H]3OC(C)(C)O[C@@H]3[C@@H]2OCc2ccccc2)OC1=O` [Compound 2, 3-O-benzyl-6,7-dideoxy-1,2-O-isopropylidene-7-methyl-α-D-alo-oct-6-enefuranurono-8,5-lactone]: the Slope is 9.217 ± 2.638 in series [1] and 0.308 ± 0.066 in series [2].
“(7R)-/(7S)-3,6,7-Trideoxy-1,2-O-isopropylidene-7-methyl-7-phenylselenyl-α-D-ribo-octofuranurono-8,5-lactone [Compound 7]”: the Slope in series [1] was 8.601 ± 2.195; in series [3], 2.624 ± 0.810; in series [2], 0.395 ± 0.104.
As for `CC1(C)O[C@H]2O[C@H]([C@H]3C=CC(=O)O3)[C@H](OCc3ccccc3)[C@H]2O1` [Compound 4, 3-O-benzyl-6,7-dideoxy-1,2-O-isopropylidene-α-D-gluco-oct-6-enefuranurono-8,5-lactone], the values for the Slope in series [1] and in series [2] were 9.770 ± 2.057 and 0.385 ± 0.109, respectively.
On to `CC(=O)OC[C@H]1OC(=O)C(Br)=C[C@@H]1OC(C)=O` [Compound 5, 4,6-di-O-acetyl-2-bromo-2,3-dideoxy-D-erythro-hex-2-enone-1,5-lactone], for which the Slope in series [4] came to 0.228 ± 0.146; in series [1], 0.423 ± 0.175; in series [3], 1.602 ± 0.674; in series [2], 0.296 ± 0.096.
In the case of `CC1=C[C@H]([C@H]2O[C@@H]3OC(C)(C)O[C@@H]3[C@H]2OCc2ccccc2)OC1=O` [Compound 1, 3-O-benzyl-6,7-dideoxy-1,2-O-isopropylidene-7-methyl-α-D-gluco-oct-6-enefuranurono-8,5-lactone], the Slope in series [1] worked out at 8.862 ± 2.644; in series [2], 0.500 ± 0.124.
Regarding `CC1(C)OC2OC(C3CC(C)([Se]c4ccccc4)C(=O)O3)C(OCc3ccccc3)C2O1` [Compound 8, (7R)-/(7S)-3-O-Benzyl-6,7-dideoxy-1,2-O-isopropylidene-7-methyl-7-phenylselenyl-α-D-gluco-octofuranurono-8,5-lactone], the Slope in series [4] came to 0.383 ± 0.182; in series [1], 10.359 ± 2.659; in series [2], 0.453 ± 0.115.
For `CC1(C)O[C@H]2O[C@H]([C@H]3C=CC(=O)O3)[C@@H](OCc3ccccc3)[C@H]2O1` [Compound 3, 3-O-benzyl-6,7-dideoxy-1,2-O-isopropylidene-α-D-alo-oct-6-enefuranurono-8,5-lactone], the Slope in series [1] stood at 7.763 ± 2.182; in series [2], 0.340 ± 0.104.
For the compound “methyl (7R)-/(7S)-2,3-anhydro-6,7-dideoxy-7-methyl-7-phenylselenyl-α-gulo-octofuranurono-8,5-lactone [Compound 6]”, the Slope in series [1] turned out to be 10.275 ± 2.421; in series [2], 0.696 ± 0.155.
As for `CO[C@H]1O[C@H]([C@@H]2CO2)[C@@H]2O[C@H]12` [Compound 9, Methyl 2,3:5,6-Dianhydro-β-L-gulofuranoside], the Slope in series [1] is 8.734 ± 1.862; in series [2], 0.326 ± 0.106.
For `O=[N+]([O-])NC1=NCCN1Cc1ccc(Cl)nc1` [Imidacloprid, imidacloprid, reference compound], in that order: 2.435 ± 0.802 and 2.218 ± 0.911.
